These results are taken from PMC5880400, “FIN219/JAR1 and cryptochrome1 antagonize each other to modulate photomorphogenesis under blue light in Arabidopsis” (PLoS Genetics, 2018).

Assay [1] has as its target T1, GST-FIN219 (FIN219/JAR1 full-length, recombinant) (Arabidopsis thaliana) (UniProt Q9SKE2).
T1 sequence: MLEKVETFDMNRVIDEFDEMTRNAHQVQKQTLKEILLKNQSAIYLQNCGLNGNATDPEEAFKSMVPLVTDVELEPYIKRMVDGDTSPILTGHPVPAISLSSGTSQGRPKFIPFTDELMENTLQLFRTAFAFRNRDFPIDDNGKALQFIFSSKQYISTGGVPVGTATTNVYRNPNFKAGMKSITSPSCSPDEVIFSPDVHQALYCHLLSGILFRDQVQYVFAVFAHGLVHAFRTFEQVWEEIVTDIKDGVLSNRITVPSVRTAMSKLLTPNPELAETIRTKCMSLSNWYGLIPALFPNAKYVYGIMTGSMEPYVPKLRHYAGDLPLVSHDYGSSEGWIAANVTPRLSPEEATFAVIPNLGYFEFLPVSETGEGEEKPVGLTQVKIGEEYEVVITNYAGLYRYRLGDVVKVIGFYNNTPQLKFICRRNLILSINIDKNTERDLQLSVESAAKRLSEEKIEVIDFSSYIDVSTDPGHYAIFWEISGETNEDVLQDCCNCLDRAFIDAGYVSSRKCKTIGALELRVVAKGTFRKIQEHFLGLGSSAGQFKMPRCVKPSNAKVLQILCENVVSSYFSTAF
As to the kind of experiment: pull-down; 5 ug purified recombinant protein mixed in 500 ul interaction buffer (50 mM Tris-HCl pH 7.5, 10 mM MgCl2, 100 mM NaCl, 1 mM PMSF, 0.04% NP-40), 4°C 1 h; GST fusions held on GSH sepharose; blot probed with antibodies against the CBP-tag; both purified.

The target in assay [2] is T2, YC-FIN219 (full-length FIN219 in 35p-YFP-C84/pRTL2) (Arabidopsis thaliana) (UniProt Q9SKE2).
T2 sequence: T1 sequence
As to the kind of experiment: split reporter; BiFC (YFP-N155 / YFP-C84) in Arabidopsis Col-0 mesophyll protoplasts under blue light (2.2 umol m^-2 s^-1), without or with 50 uM MeJA.

Assay [3] deals with T2, YC-FIN219 (full-length FIN219 in 35p-YFP-C84/pRTL2) (Arabidopsis thaliana). Nature of the assay: split reporter; BiFC (YFP-N155 / YFP-C84) in Arabidopsis Col-0 mesophyll protoplasts in the dark, without or with 50 uM MeJA.
The target in assay [4] is T3, FIN219/JAR1, endogenous in Arabidopsis seedlings (Arabidopsis thaliana (endogenous in seedlings)) (UniProt Q9SKE2).
T3 sequence: T1 sequence
As to the kind of experiment: co-IP; 2 mg total protein of GUS-CCT1 transgenic or wild-type Col-0 seedlings grown in the dark or blue light with or without MeJA; precipitated with FIN219 monoclonal antibodies, 4°C 4 h; probed with GUS, COP1 or CRY1 polyclonal antibodies.

No constants are given. Whether binding was seen depends on the method and setting. Binding calls can cover weak binding; strength is not graded here. For some of these results: Sequences can lack the tags named with a protein. For some of these results: In cells and extracts the contact can be indirect.

Take “CBP-CCT1 (C terminus of CRY1, recombinant) (Arabidopsis thaliana) (domain or fragment)”: in assay [1], the binding result is on record as “binds”.

On to “CCT1 (C terminus of CRY1) of the BiFC assay (Arabidopsis thaliana) (domain or fragment)”, for which the binding result in assay [2] and in assay [3] was “binds” throughout. As for “GUS-CCT1 fusion protein (C terminus of CRY1 fused to GUS) (Arabidopsis thaliana) (domain or fragment)”, in assay [4], the binding result is on record as “binds”.
